Results on three molecules are retold here after patent US20240156980A1 (Molecular Partners, published 2024).

Protein sequences, listed by entry. Tags and fused reporters are not part of them. Lines headed by an entry give the natural chain unless they say otherwise; changes in a name come on top.
UniProt P07766: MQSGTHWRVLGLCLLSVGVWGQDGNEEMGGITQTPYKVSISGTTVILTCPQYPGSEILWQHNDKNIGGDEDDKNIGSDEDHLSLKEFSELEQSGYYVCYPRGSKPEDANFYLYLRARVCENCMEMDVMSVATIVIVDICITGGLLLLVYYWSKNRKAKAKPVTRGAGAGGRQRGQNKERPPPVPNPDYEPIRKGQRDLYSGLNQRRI

The target of assay [1] is T1, human CD3 on T cells (human, UniProt P07766 23-207; P09693 23-182; P04234 22-171). As to the kind of experiment: flow cytometry on Jurkat wt cells. In general terms: A flow cytometer gives signals particle by particle.
Assay [2] has as its target T1, human CD3 on T cells. In words: flow cytometry on Jurkat cells, detection with anti-DARPin antibodies and anti-rabbit IgG Alexa Fluor 488, MFI [column T-cell binding].
In assay [3] the target is recombinant human EGFR extracellular domain (human) (UniProt P00533). In words: SPR.
Assay [4] deals with recombinant mouse EGFR extracellular domain (mouse) (UniProt Q01279). In words: SPR.

No constants are given. Whether binding was seen depends on the method and setting. Some results given as binding are weak or reduced against the parent protein; the word gives no strength. For part of these data: Tags and fused reporters may be left off the sequences shown.

B1: Active TCE EGFR-C7v119-6His (designed binder)
chain: MGSDLGYKLLRAAFHGQDDEVRILLAAGADVNAKDLIGQTPLHNAAWVGHLEIVEVLLKAGADVNAKDYYGNTPLHLAAHDGHLEIVEVLLKAGADVNAQDTWGETPADLATNAGHEDIAEVLQKAAGSPTPTPTTPTPTPTTPTPTPTGSDLGQKLLEAAWAGQDDEVRELLKAGADVNAKNSRGWTPLHTAAQTGHLEIFEVLLKAGADVNAKDDKGVTPLHLAAALGHLEIVEVLLKAGADVNAQDSWGTTPADLAAKYGHEDIAEVLQKAAGSHHHHHH
notes: Bispecific ankyrin repeat protein; also called active TCE (C7v119 comprising construct); anti-EGFR x anti-CD3
In the case of B1, the binding entry in assay [1] and in assay [2] was “binds” throughout.

B2: Active TCE EGFR-C7v122-6His (designed binder)
chain: MGSDLGYKLLRAAFHGQDDEVRILLAAGADVNAKDLIGQTPLHNAAWVGHLEIVEVLLKAGADVNAKDYYGNTPLHLAAHDGHLEIVEVLLKAGADVNAQDTWGETPADLATNAGHEDIAEVLQKAAGSPTPTPTTPTPTPTTPTPTPTGSDLGQKLLEAAWAGQDDEVRELLKAGADVNAKNSRGWTPLHTAAQTGHLEIFEVLLKAGADVNAKNDKRVTPLHLAAALGHLEIVEVLLKAGADVNARDSWGTTPADLAAKYGHQDIAEVLQKAAGSHHHHHH
notes: Bispecific ankyrin repeat protein; also called active TCE (C7v122 comprising construct); anti-EGFR x anti-CD3
Turning to B2, the binding result in assay [1] and in assay [2] was “binds” each time.

B3: anti-EGFR DARPin (biotinylated, monovalent EGFR-specific ankyrin repeat domain) (designed binder)
chain: MGSDLGYKLLRAAFHGQDDEVRILLAAGADVNAKDLIGQTPLHNAAWVGHLEIVEVLLKAGADVNAKDYYGNTPLHLAAHDGHLEIVEVLLKAGADVNAQDTWGETPADLATNAGHEDIAEVLQKAA
modifications: biotinylated (site not stated)
Turning to B3, the binding result in assay [3] and in assay [4] was “binds” in each case.
